# About 7,500 (2.1%) of roughly 360,000 compounds were called active. This list was built around the results that the source calls inconclusive (neither active nor inactive); the mix of calls is not that of the screen. The call rests on the fitted dose curve; in most records, active means well fitted inhibition curve with a large enough effect; inconclusive means small, poorly fitted or top-dose-only effect, or effect the other way; inactive means flat fitted curve, though single readings scatter. Where the call is inconclusive, the potency comes from a doubtful curve fit.
# Test: Nrf2 qHTS screen for inhibitors; further: nearly all actives have a fitted effect of over 60% in size
# Details: A549 ARE-Fluc reporter, luciferase luminescence, 18-24 h; activity change, negative = inhibition: at 46 µM (top of the series)
# Outline: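 Concentration-response testing used A549 ARE_Fluc cells at 5000 cells/well. Following an 18-24 h compound incubation, viability was read by fluorescence (Ex 405/Em 525) and luciferase output by luminescence.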
# On the % scale 0 is the no-effect control and ±100 the full control effect; potency means the concentration at half of the fitted maximal effect.
SMILES,Potency,"activity change, negative = inhibition"
CC1(C)C(C#N)=C(N)Oc2c1c(=O)oc1ccccc21,"inconclusive: 29.1 µM [falling, single point]",
CC(C)(C)c1ccc(S(=O)(=O)N2CCC(c3nc4ccc(Cl)cc4[nH]3)CC2)cc1,active: 16.4 µM,
COc1cc(C(=O)NC2CCN(C)CC2)ccc1Nc1ncc2c(n1)N(C1CCCCC1)CCC(=O)N2C,"inconclusive: 9.2 µM [falling, partial curve]",
COc1ccc(CCNC(=O)CO/N=C/c2cc3c(cc2Br)OCO3)cc1OC,"inconclusive: 23.1 µM [falling, partial curve, poor fit]",
O=S(=O)(Nc1nc2ccccc2nc1N1CCN(c2ccccc2F)CC1)c1ccc(Cl)cc1,active: 23.1 µM,
Nc1ccc(C(O)(C(F)(F)F)C(F)(F)F)cc1,"inconclusive: 0.259 µM [falling, full curve]",
CCN(CC)c1nn2c(=O)c(C(=O)NCc3ccc(OC)cc3OC)cnc2s1,,inactive: -16.3%
CCCNC(=O)c1ccc2c(c1)N=C(C)c1c(C)ccc(C)c1S2,"inconclusive: 0.731 µM [falling, full curve, poor fit]",
O=C(NCCCN1CCN(c2ccccc2)CC1)c1nnc(Cc2c(F)cccc2Cl)o1,,inactive: -6.42%
COc1ccc(OC)c(-c2csc(NC(=O)Cc3ccccc3OC)n2)c1,,inactive: -17.3%
O=C(NCCCCc1ccccc1)c1ccc(Br)cc1,"inconclusive: 14.6 µM [activator, partial curve, poor fit]",
CC1CC(=O)c2cnc(Nc3ccccc3)nc2C1 (centres undefined),"inconclusive: 18.4 µM [activator, single point]",
C=CCn1c(=S)[nH]c2cc(C(=O)N3CCN(c4ccccc4OC)CC3)ccc2c1=O,"inconclusive: 29.1 µM [falling, partial curve, poor fit]",
c1ccc(CCNc2nc(-c3ccccn3)nc3ccccc23)cc1,active: 10.3 µM,
CCOC(=O)C1CCN(C(=O)c2cc3ccc4cccnc4c3[nH]2)CC1,"inconclusive: 20.6 µM [activator, partial curve]",
O=C(Nc1ccccc1F)c1nc(S(=O)(=O)Cc2ccccc2F)ncc1Cl,"inconclusive: 18.4 µM [falling, single point]",
O=c1[nH]c2cc3c(cc2cc1CN(Cc1ccc2c(c1)OCO2)Cc1nnnn1CC1CCCO1)OCO3 (centres undefined),"inconclusive: 1.84 µM [falling, full curve]",
CCN(C(=O)c1noc2c1COc1ccc(C)cc1-2)c1cccc(C)c1,"inconclusive: 2.06 µM [activator, full curve]",
Cc1ccc(NCC(=O)Nc2ccc(Br)cc2)cc1C,"inconclusive: 3.66 µM [activator, full curve, poor fit]",
O=C(N/N=C/c1cccs1)c1n[nH]c2c1CCCC2,"inconclusive: 1.84 µM [activator, partial curve]",
O=C(O)c1cc(N2N=C(C(F)(F)F)/C(=C/C=C/c3ccco3)C2=O)ccc1Cl,"inconclusive: 23.1 µM [activator, partial curve, poor fit]",
CC(=O)N1CCc2c(sc(NC(=O)C3CCCN3S(=O)(=O)c3cccs3)c2C#N)C1 (centres undefined),"inconclusive: 29.1 µM [falling, single point]",

SMILES,Potency,"activity change, negative = inhibition"
CSc1nnc(-c2ccncc2)n1/N=C/c1cn(-c2ccccc2)nc1-c1ccc(Cl)cc1,"inconclusive: 16.4 µM [falling, partial curve, poor fit]",
Cc1cccc(N2CCCC2=Nc2ccc(Br)cc2C#N)c1,"inconclusive: 0.651 µM [falling, full curve, poor fit]",
CN(C)CCCN(Cc1ccccc1)C(=S)Nc1ccc(OC(F)F)cc1,,inactive: -1.68%
CC(C)(C)OC(=O)N1CCC(c2c(C(=O)NCCN3CCC(Cc4ccccc4)CC3)cnn2-c2cccc(Cl)c2)CC1,"inconclusive: 18.4 µM [falling, single point]",
O=C(Nc1ccc(Cl)cc1)Nc1cccnc1,,inactive: 2.67%
COc1ccc(-c2nnnn2C)cc1S(=O)(=O)NCc1ccccc1,,inactive: 1.98%
COc1cc2cnc(-c3ccccc3)c(C(=O)c3ccc(OCc4ccccc4)cc3)c2cc1OC,,inactive: -16.2%
Cc1c(C(=O)Nc2ccc3c(c2)OCCO3)sc2nc(-c3ccccc3)cn12,active: 6.51 µM,
COC(=O)c1ccc(Cl)c(NC(=O)CN(c2ccc(OC)cc2)S(=O)(=O)c2ccccc2)c1,"inconclusive: 13 µM [falling, partial curve, poor fit]",
CCCCCC(CC(=O)NO)C(=O)NC(C(=O)N1CCCC1CO)C(C)C (centres undefined),"inconclusive: 25.9 µM [falling, single point]",
Cc1cccc(N2CCN(C(=O)c3ccc4nc(-c5ccco5)c(-c5ccco5)nc4c3)CC2C)c1 (centres undefined),active: 20.6 µM,
CCN1CCN(Cc2ccc(NC(=O)c3ccc(C)c(/C=C/c4cnc(Nc5cc(N6CCNCC6)nc(C)n5)cn4)c3)cc2C(F)(F)F)CC1,active: 18.4 µM,
Cc1c(C(=O)Nc2ccccc2[N+](=O)[O-])csc1-c1ccccc1,"inconclusive: 1.64 µM [activator, full curve]",
Cc1cccc(CN2CCC(CNC(=O)Cn3ncc4c([nH]c5ccc(C)cc54)c3=O)CC2)c1,"inconclusive: 5.8 µM [activator, full curve, poor fit]",
COc1ccc(CNC(=O)Cc2cccs2)cc1OC,"inconclusive: 13 µM [activator, partial curve]",
CCOC(=O)c1cn(Cc2ccc(C)cc2)c2cc(F)ccc2c1=O,"inconclusive: 1.64 µM [falling, partial curve, poor fit]",
COc1ccc(NC(=O)CSc2nc(SC)ns2)c(OC)c1,"inconclusive: 4.61 µM [activator, full curve]",
O=C(CCN1CCN(c2ccccc2)CC1)NNC(=O)Cc1c(F)cccc1Cl,"inconclusive: 29.1 µM [falling, single point]",
Cc1ccc(Cl)c(NC(=O)CN(C)CC(=O)Nc2ccc(F)c(F)c2F)c1Cl,"inconclusive: 11.6 µM [falling, partial curve, poor fit]",
COc1ccc(/C=C2\SC(=S)N(CCC(=O)NCCc3ccc(O)cc3)C2=O)cc1,"inconclusive: 18.4 µM [falling, single point]",
Cc1ccc2cc3c(N)c4c(C)ccc(C)c4nc3nc2c1,"inconclusive: 1.64 µM [falling, partial curve, poor fit]",
CC(C)(C)c1ccc(NC(=O)CC2(C(F)(F)F)OCCO2)cc1,"inconclusive: 0.731 µM [activator, full curve]",

SMILES,Potency,"activity change, negative = inhibition"
C[C@@H]1CN([C@H](C)CO)C(=O)c2cc(NC(=O)c3ccncc3)ccc2O[C@@H]1CN(C)C(=O)Nc1ccccc1,,inactive: 3.08%
Cc1ccsc1C(=O)N1CCCC(CO)(Cc2ccccc2F)C1 (centres undefined),,inactive: -8.86%
O=S(=O)(c1ccc(Cl)c(S(=O)(=O)N2CCCC2)c1)N1CCCC1,"inconclusive: 32.6 µM [falling, single point]",
O=C(C[n+]1cc(Br)cc(Br)c1)c1ccc(Cl)cc1,"inconclusive: 14.6 µM [activator, single point]",
c1ccc(CC2CCN(c3ncnc4sccc34)CC2)cc1,active: 5.17 µM,
Cc1cc2oc(=O)c(CC(=O)NCCc3ccccc3F)c(C)c2c2occ(C(C)(C)C)c12,,inactive: 2.29%
O=S(=O)(Nc1cccc2c1CCCC2)c1ccc(Cl)cc1,"inconclusive: 29.1 µM [falling, single point]",
CC(=O)O[C@@H](C[C@@H](C)C1=C2C[C@H](O)C3[C@@]4(C)CCC(=O)C(C)(C)C4CC[C@]3(C)[C@@]2(C)CC1)[C@H]1OC1(C)C (some centres undefined),"inconclusive: 25.9 µM [falling, single point]",
Cc1ccc(C(=O)N/N=C/c2nc3ccccc3n2C)cc1,"inconclusive: 25.9 µM [falling, partial curve, poor fit]",
O=C(Nc1cccc(Br)c1)c1ccc2c(c1)SC1=NS(=O)(=O)CCN12,"inconclusive: 11.6 µM [falling, partial curve, poor fit]",
CCCCN(C(=O)C1CCC(CNS(=O)(=O)c2cccc3nsnc23)CC1)c1ccccc1 (centres undefined),active: 25.9 µM,
CN(c1ccccc1)c1nc(N)c([N+](=O)[O-])c(N2CCCC2)n1,"inconclusive: 6.51 µM [activator, partial curve]",
Cc1c(N=C2C=C(Br)C(=O)C(Br)=C2)c(=O)n(-c2ccccc2)n1C,"inconclusive: 9.2 µM [activator, single point]",
O=C(Nc1ccc(Cl)cc1Cl)c1ccc2c(=O)n3c(nc2c1)CCC3,"inconclusive: 3.26 µM [activator, full curve]",
O=C(NCCc1ccccc1)N1c2ccccc2Sc2ccccc21,"inconclusive: 29.1 µM [falling, single point]",
O=c1c2cc3c(cc2nc2sc(Nc4cccc([N+](=O)[O-])c4)nn12)OCO3,"inconclusive: 23.1 µM [activator, partial curve, poor fit]",
O=C(Nc1ccc(Cl)cn1)C1CCCN1S(=O)(=O)c1cccc2ccccc12 (centres undefined),"inconclusive: 13 µM [falling, partial curve]",
C/C(=N\Nc1nc(C)cc(-c2ccccc2)n1)c1cccc(N)c1,active: 20.6 µM,
COc1ccc(Nc2ncnc3ccc(Br)cc23)c(OC)c1,"inconclusive: 4.11 µM [falling, partial curve]",
Cc1ccnc(NC(=O)CCS(=O)(=O)c2ccccc2)c1,"inconclusive: 20.6 µM [activator, partial curve, poor fit]",

# 18 entries from above, with bars between the fields.
SMILES | Potency | activity change, negative = inhibition
COc1ccc(CCNC(=O)CO/N=C/c2cc3c(cc2Br)OCO3)cc1OC | inconclusive: 23.1 µM [falling, partial curve, poor fit] | 
O=C(NCCCN1CCN(c2ccccc2)CC1)c1nnc(Cc2c(F)cccc2Cl)o1 |  | inactive: -6.42%
O=C(NCCCCc1ccccc1)c1ccc(Br)cc1 | inconclusive: 14.6 µM [activator, partial curve, poor fit] | 
O=C(Nc1ccccc1F)c1nc(S(=O)(=O)Cc2ccccc2F)ncc1Cl | inconclusive: 18.4 µM [falling, single point] | 
O=c1[nH]c2cc3c(cc2cc1CN(Cc1ccc2c(c1)OCO2)Cc1nnnn1CC1CCCO1)OCO3 (centres undefined) | inconclusive: 1.84 µM [falling, full curve] | 
O=C(O)c1cc(N2N=C(C(F)(F)F)/C(=C/C=C/c3ccco3)C2=O)ccc1Cl | inconclusive: 23.1 µM [activator, partial curve, poor fit] | 
COc1cc2cnc(-c3ccccc3)c(C(=O)c3ccc(OCc4ccccc4)cc3)c2cc1OC |  | inactive: -16.2%
Cc1c(C(=O)Nc2ccc3c(c2)OCCO3)sc2nc(-c3ccccc3)cn12 | active: 6.51 µM | 
Cc1cccc(N2CCN(C(=O)c3ccc4nc(-c5ccco5)c(-c5ccco5)nc4c3)CC2C)c1 (centres undefined) | active: 20.6 µM | 
COc1ccc(NC(=O)CSc2nc(SC)ns2)c(OC)c1 | inconclusive: 4.61 µM [activator, full curve] | 
Cc1ccc2cc3c(N)c4c(C)ccc(C)c4nc3nc2c1 | inconclusive: 1.64 µM [falling, partial curve, poor fit] | 
C[C@@H]1CN([C@H](C)CO)C(=O)c2cc(NC(=O)c3ccncc3)ccc2O[C@@H]1CN(C)C(=O)Nc1ccccc1 |  | inactive: 3.08%
c1ccc(CC2CCN(c3ncnc4sccc34)CC2)cc1 | active: 5.17 µM | 
O=S(=O)(Nc1cccc2c1CCCC2)c1ccc(Cl)cc1 | inconclusive: 29.1 µM [falling, single point] | 
O=C(Nc1cccc(Br)c1)c1ccc2c(c1)SC1=NS(=O)(=O)CCN12 | inconclusive: 11.6 µM [falling, partial curve, poor fit] | 
CN(c1ccccc1)c1nc(N)c([N+](=O)[O-])c(N2CCCC2)n1 | inconclusive: 6.51 µM [activator, partial curve] | 
O=C(Nc1ccc(Cl)cc1Cl)c1ccc2c(=O)n3c(nc2c1)CCC3 | inconclusive: 3.26 µM [activator, full curve] | 
COc1ccc(Nc2ncnc3ccc(Br)cc23)c(OC)c1 | inconclusive: 4.11 µM [falling, partial curve] | 
